Test results from patent publication US20130171063A1 (LUDWIG INSTITUTE FOR CANCER RESEARCH, published 2013).
No constants are given. Whether binding was seen depends on the method and setting. A result given as binding can be weak or reduced; the word gives no strength.

Chains of the proteins cited; added tags and fusions are not shown. Lines headed by an entry give the natural chain unless they say otherwise; changes in a name come on top.
UniProt P08581: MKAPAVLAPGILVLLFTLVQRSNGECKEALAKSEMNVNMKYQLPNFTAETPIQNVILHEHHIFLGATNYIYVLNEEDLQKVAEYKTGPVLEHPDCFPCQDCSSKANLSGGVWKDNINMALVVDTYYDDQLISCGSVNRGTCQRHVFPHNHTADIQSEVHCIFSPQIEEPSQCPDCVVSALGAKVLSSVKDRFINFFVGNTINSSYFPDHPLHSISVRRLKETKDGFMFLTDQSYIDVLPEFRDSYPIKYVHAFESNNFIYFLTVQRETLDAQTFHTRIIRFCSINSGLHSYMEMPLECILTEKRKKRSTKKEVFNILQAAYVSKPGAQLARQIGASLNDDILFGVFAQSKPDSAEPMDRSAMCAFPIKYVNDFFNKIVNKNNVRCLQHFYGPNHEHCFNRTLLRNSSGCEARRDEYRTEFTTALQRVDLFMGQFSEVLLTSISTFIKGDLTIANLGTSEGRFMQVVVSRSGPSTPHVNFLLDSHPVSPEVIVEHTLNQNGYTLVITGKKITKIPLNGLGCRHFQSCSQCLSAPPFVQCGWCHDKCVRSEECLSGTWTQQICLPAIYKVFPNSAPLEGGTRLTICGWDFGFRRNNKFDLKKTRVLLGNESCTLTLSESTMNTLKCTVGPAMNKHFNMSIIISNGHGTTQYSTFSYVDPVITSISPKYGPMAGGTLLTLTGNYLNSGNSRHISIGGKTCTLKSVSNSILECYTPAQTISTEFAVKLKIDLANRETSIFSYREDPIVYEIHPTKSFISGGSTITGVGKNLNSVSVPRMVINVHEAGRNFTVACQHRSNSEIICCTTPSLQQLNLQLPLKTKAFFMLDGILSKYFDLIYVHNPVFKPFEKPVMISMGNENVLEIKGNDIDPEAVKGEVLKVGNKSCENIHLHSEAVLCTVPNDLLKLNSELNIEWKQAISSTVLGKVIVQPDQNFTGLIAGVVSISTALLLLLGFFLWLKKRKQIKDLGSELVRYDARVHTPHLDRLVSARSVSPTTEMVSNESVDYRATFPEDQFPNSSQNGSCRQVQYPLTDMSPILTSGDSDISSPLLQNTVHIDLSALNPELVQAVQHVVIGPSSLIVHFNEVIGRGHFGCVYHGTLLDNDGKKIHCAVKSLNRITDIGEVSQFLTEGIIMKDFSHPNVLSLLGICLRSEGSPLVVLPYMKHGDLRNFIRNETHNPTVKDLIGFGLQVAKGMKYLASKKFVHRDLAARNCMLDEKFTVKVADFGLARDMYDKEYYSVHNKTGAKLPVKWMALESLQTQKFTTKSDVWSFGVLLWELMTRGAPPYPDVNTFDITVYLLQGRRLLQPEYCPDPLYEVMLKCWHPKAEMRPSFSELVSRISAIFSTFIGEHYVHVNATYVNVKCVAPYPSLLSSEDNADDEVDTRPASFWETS

Experiments:
[1] = molecular target: processed c-Met (disulphide linked alpha/beta heterodimer) (human) (UniProt P08581); assay: immunoprecipitation from A549 cells, western blot with 25H2 under reducing conditions
[2] = molecular target: processed c-Met (disulphide linked alpha/beta heterodimer) (human) (UniProt P08581); assay: immunoprecipitation from A549 cells, reducing blot with 25H2
[3] = molecular target: processed c-Met (disulphide linked alpha/beta heterodimer) (human) (UniProt P08581); assay: immunoblot of c-Met immunoprecipitated from A549 cells with LMH 85, probed with LMH 87

Binder | binding [1] | binding [2] | binding [3]
antibody LMH 85 (antibody, V domains shown, Mouse monoclonal antibody from a hybridoma) VH: QVQLQQSGAELAKPGASVKMSCKASGYTFIIYWIHWIKQRPGQGLEWIGYINPSNDYTEYNQKFKDKATLTADKSSNTAFMQLSSLTSEDSAVYYCARDSYDYDDGAYAMDYWGQGTSVTVSS VL: QIVLSQSPAILSASPGEKVTMTCRASSGVNYMHWYQQKPGSSPKPWIYATSNLASGVPARFSGSGSGTSYSLTISRVEAEDAATYYCQQWISHPFTFGSGTKLEIK | binds | binds | –
antibody LMH 87 (antibody, V domains shown, Mouse monoclonal antibody from a hybridoma) VH: QVQLQQSGPELVKSGASVKMSCKASGNTLKDDHVHWVKQRPGQGLEWIGWIYPGGGRTRYNEKFKGKTTLTADKPSSTVNMLLSSLTSEDSAIYFCTNLVFDVWGAGTTVTVSS VL: DIVMTQAAPSVPVTPGESVSISCRSSKSLLHSNGNTYLYWFLQRPGQSPQVLIYRMSNLASGVPDRFSGSGSGTAFTLRIRRVEAEDVGVYYCMQNLEYPFTFGGGTKLEIK | – | – | binds
